The text below walks through data of PMC2690654.

Amino acid sequences for entries named in this document (tags omitted). Residues count along the entry.
UniProt P06761, residues 19-654: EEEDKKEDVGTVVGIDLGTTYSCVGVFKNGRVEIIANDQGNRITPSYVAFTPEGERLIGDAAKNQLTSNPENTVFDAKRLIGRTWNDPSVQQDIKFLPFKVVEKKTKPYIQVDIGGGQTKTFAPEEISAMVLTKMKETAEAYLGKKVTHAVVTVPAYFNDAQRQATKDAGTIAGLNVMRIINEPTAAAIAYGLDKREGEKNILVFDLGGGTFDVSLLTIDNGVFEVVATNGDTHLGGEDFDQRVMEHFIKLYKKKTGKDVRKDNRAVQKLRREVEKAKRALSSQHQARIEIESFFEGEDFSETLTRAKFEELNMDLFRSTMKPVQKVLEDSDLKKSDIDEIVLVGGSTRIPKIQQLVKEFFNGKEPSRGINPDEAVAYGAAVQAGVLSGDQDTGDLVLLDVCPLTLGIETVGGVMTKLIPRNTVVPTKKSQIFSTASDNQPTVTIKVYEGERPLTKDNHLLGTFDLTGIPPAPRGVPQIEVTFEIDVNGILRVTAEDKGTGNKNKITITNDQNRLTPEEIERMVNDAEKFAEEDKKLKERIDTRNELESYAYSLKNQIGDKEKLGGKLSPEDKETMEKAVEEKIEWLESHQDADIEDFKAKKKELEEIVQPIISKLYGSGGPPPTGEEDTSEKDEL
UniProt P30904: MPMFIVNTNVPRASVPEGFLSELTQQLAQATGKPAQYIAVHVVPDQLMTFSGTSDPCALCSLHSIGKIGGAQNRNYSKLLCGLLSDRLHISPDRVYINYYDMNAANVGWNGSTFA

These are yes or no findings as the source states them, for the method shown. For part of these data: Binding seen in cells or lysates may run through a third protein. Some results given as binding are weak or reduced against the parent protein; the word gives no strength.

Experiment [1] has as its target glucose regulated protein 78 (rat (endogenous in bladder)) (UniProt P06761). Kind of experiment: co-IP; rat bladder homogenates (250 µg protein; rats treated with saline or substance P) immunoprecipitated with GRP78 polyclonal antibody (5 µg) and protein G agarose; SDS-PAGE; western blotting for MIF or A1-I3.
For experiment [2], the target named is T1, α1-inhibitor III (rat (endogenous in bladder)) (UniProt P14046).
T1 sequence: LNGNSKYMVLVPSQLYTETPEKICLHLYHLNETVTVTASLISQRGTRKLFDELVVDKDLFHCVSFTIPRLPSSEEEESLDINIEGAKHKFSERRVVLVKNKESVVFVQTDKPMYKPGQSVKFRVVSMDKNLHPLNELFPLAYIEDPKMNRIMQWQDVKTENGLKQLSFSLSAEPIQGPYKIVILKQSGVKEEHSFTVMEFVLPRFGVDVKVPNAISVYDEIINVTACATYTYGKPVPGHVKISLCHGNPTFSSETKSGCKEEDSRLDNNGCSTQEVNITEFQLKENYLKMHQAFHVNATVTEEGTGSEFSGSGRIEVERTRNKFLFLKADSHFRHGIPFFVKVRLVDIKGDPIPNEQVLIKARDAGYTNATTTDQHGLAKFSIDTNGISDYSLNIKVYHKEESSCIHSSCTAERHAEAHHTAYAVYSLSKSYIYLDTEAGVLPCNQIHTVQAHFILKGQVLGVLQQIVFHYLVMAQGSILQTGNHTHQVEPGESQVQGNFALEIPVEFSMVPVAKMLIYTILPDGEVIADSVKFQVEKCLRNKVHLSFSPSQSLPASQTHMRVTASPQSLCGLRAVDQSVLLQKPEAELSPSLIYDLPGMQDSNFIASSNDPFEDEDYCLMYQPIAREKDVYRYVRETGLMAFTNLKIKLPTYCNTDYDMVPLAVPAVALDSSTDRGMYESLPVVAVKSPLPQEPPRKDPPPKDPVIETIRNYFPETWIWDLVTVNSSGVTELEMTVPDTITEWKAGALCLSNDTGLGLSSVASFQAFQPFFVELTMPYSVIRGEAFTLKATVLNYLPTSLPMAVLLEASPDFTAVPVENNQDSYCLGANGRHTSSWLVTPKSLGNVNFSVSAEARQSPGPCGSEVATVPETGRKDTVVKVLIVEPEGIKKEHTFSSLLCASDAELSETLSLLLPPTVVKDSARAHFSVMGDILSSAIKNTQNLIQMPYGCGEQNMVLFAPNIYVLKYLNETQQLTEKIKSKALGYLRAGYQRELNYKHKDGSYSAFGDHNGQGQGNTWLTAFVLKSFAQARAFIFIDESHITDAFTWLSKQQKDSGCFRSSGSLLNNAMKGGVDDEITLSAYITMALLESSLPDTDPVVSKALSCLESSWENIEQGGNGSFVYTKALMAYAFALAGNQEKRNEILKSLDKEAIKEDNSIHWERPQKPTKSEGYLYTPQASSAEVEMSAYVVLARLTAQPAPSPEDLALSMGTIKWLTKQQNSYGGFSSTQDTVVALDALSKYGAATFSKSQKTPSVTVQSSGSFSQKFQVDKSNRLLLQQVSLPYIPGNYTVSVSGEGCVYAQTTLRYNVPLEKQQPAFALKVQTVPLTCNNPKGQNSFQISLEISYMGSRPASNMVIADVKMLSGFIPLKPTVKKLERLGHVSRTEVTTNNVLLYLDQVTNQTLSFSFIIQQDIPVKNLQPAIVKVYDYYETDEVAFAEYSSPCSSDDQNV
Put plainly: bands reactive in both MIF and A1-I3 western blots after SDS-PAGE; GRP78 immunoprecipitates of rat bladder homogenates; the same samples blotted for MIF and for A1-I3; bands at 130 and 80 kDa seen in both blots.

In the case of “Macrophage migration inhibitory factor (from UniProt P30904 1-115) (ligand)”, the binding entry in experiment [1] and in experiment [2] was “binds” throughout.

B1: α1-inhibitor III (protein, UniProt P14046 25-1477)
chain: T1 sequence
Regarding B1, the binding entry in experiment [1] was “binds”.
